No constants are given. Whether binding was seen depends on the method and setting. Binding seen in cells or lysates may run through a third protein. Some results given as binding are weak or reduced against the parent protein; the word gives no strength. Where a sequence is shown, tags or fusion partners need not be part of it.
Target: T1, Flag-tagged eIF5B truncation with the tr-type G domain (UniProt O60841)
T1 sequence: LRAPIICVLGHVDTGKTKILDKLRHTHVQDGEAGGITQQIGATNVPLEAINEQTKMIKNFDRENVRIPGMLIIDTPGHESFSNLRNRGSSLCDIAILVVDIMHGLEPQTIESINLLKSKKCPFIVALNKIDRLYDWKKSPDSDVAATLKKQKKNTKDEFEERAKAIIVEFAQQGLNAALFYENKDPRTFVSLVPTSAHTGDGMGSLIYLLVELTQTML
Experiment: co-IP; T24 cells transfected with Flag-tagged eIF5B truncations, immunoprecipitation with anti-Flag, immunoblot with anti-Flag or anti-YTHDF1

binding: binds
B1: YTHDF1 (YTH domain family protein 1) of T24 cells (protein, UniProt Q9BYJ9 1-559)
chain: MSATSVDTQRTKGQDNKVQNGSLHQKDTVHDNDFEPYLTGQSNQSNSYPSMSDPYLSSYYPPSIGFPYSLNEAPWSTAGDPPIPYLTTYGQLSNGDHHFMHDAVFGQPGGLGNNIYQHRFNFFPENPAFSAWGTSGSQGQQTQSSAYGSSYTYPPSSLGGTVVDGQPGFHSDTLSKAPGMNSLEQGMVGLKIGDVSSSAVKTVGSVVSSVALTGVLSGNGGTNVNMPVSKPTSWAAIASKPAKPQPKMKTKSGPVMGGGLPPPPIKHNMDIGTWDNKGPVPKAPVPQQAPSPQAAPQPQQVAQPLPAQPPALAQPQYQSPQQPPQTRWVAPRNRNAAFGQSGGAGSDSNSPGNVQPNSAPSVESHPVLEKLKAAHSYNPKEFEWNLKSGRVFIIKSYSEDDIHRSIKYSIWCSTEHGNKRLDSAFRCMSSKGPVYLLFSVNGSGHFCGVAEMKSPVDYGTSAGVWSQDKWKGKFDVQWIFVKDVPNNQLRHIRLENNDNKPVTNSRDTQEVPLEKAKQVLKIISSYKHTTSIFDDFAHYEKRQEEEEVVRKERQSRNKQ

Reference: publication PMC11982326
